Assay [1] deals with T1, Bub1-GFP (fission yeast) (UniProt O94751).
T1 sequence: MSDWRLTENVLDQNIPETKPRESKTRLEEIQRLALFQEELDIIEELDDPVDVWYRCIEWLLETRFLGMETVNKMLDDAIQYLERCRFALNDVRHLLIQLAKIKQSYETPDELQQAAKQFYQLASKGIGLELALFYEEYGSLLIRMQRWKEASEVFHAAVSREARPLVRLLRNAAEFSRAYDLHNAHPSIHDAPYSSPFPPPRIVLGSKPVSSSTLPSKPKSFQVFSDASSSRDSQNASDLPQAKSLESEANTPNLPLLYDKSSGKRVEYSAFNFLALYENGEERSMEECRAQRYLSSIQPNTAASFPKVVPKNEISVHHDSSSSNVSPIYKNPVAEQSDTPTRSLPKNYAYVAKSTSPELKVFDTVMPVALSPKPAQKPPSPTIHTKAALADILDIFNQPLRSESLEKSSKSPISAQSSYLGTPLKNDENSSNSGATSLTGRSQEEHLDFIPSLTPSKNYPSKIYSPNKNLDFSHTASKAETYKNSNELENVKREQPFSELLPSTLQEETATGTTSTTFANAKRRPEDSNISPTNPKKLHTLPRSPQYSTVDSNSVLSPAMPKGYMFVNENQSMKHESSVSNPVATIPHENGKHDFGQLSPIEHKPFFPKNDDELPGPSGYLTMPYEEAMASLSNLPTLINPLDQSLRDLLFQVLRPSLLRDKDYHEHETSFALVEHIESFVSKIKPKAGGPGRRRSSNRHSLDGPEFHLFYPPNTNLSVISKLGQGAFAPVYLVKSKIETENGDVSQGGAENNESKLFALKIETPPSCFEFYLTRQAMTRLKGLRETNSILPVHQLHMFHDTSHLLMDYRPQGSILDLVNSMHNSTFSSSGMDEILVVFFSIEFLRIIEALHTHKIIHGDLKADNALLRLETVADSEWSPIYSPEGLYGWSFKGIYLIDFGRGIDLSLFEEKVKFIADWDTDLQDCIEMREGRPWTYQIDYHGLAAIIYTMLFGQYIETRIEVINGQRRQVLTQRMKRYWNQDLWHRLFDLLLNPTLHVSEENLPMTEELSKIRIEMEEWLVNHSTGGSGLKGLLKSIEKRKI
Put plainly: co-IP; Bub1-GFP immunoprecipitated from fission yeast cells arrested by co-expression of TetR-Spc7-9TE and TetR-Mph1ΔN (16 hr), cross-linked with DSP before harvesting; with and without the tetO array; also in bub3Δ cells harvested after 12 hr of induction (higher levels of the complex); immunoblots with anti-Bub1 and anti-Mad1. For orientation: A western blot detects proteins with antibodies after separation by electrophoresis.

The target in the next assay is T2, Alp4 (fission yeast) (UniProt Q9Y705).
T2 sequence: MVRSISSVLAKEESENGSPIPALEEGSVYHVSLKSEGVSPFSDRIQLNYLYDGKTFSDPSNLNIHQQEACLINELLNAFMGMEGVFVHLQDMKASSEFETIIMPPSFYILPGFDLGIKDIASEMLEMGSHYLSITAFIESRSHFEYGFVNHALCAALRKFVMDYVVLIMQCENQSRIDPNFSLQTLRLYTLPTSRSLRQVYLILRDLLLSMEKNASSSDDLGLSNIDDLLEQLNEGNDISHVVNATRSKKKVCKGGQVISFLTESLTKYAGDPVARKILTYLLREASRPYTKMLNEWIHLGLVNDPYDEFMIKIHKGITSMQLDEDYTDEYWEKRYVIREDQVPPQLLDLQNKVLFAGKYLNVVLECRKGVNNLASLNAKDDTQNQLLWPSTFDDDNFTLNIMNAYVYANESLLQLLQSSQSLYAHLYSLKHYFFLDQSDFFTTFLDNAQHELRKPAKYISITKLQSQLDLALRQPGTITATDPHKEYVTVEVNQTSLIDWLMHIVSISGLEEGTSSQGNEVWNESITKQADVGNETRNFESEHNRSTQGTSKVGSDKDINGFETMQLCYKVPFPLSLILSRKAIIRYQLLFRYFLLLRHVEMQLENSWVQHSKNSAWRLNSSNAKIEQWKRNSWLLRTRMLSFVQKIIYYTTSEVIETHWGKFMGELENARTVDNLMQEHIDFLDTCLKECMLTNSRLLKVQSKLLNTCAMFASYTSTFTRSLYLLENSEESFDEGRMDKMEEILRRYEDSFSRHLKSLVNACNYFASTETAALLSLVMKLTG
Put plainly: co-IP; synthetically arrested fission yeast cells with Mad2-GFP (Figure S3A).

Assay [2] addresses T1, Bub1-GFP (fission yeast). Put plainly: co-IP; cells with the TetR-Spc7-wt platform; data not shown.
For assay [3], the target named is T1, Bub1-GFP (fission yeast). Put plainly: co-IP; extracts made from nda3 arrested cells after DSP cross-linking; data not shown.

Results are given in words; binding and its absence hold for the method and conditions named. Binding seen in cells or lysates may run through a third protein. Some binding calls cover weakened binding; strength is not graded here. Sequences can lack the tags named with a protein.

B1: Mad2 (protein, UniProt O14417 1-203)
chain: MSSVPIRTNFSLKGSSKLVSEFFEYAVNSILFQRGIYPAEDFKVVRKYGLNMLVSVDEEVKTYIRKIVSQLHKWMFAKKIQKLILVITSKCSGEDLERWQFNVEMVDTADQFQNIGNKEDELRVQKEIQALIRQITATVTFLPQLEEQCTFNVLVYADKDSEVPTDWVDSDPRILRDAEQVQLRSFSTSMHKIDCQVAYRVNP
Regarding B1, the binding result in the assay with Bub1-GFP (fission yeast) [1] is listed as “binds”.

B2: Mad2-GFP (protein, UniProt O14417 1-203)
chain: B1 chain
Consider B2, for which the binding result with Alp4 (fission yeast) is “binds”.

B3: Mad1 (protein, UniProt P87169 1-676)
chain: MADSPRDPFQSRSQLPRFLATSVKKPNLKKPSVNSANETKNPKLASLEFQLENLKNDLKRKELEFEREQIELQRKLAEEHEQKNSLQLRLTLVEKQLEEQSTSYQKEIEEVRNEKEATQVKIHELLDAKWKEIAELKTQIEKNDQALSEKNHEVMVSNQALQMKDTNLTNLEKLFADSREQLETKCKELAAAEQQLQELSVHNQQLEESIKQVSSSIELEKINAEQRLQISELEKLKAAQEERIEKLSSNNRNVEILKEEKNDLESKLYRFEEYRDKVATLELENEKIQTELNSWKSLITNELPTPEAVSNKLVFLQNTNANLGERVSSLESQLSNKPANQPLGANEKDAAHITELETKLKELHEQNRRLQRQKSLATQEIDLLRENLKSYDDEEAILSEKNTDMKKLERIEGLVKLVDEYKLKLESMPVSLDVDETSDEVSLQKRRRKNEHKDAGYVTELYRKNQHLLFQVKEKTNIEAFLREQIITLESSIATLRQELAQVTEINSCRVLQHRSNPTLKYERIKAAQLEMLNAENSALKALLEDKKVDCLPIQSFKIAERKALDLKKEVAEREKRIQRLKEIFSVKSLEFREAVFSLFGYKLDFMPNGSVRVTSTYSREDNTAFIFDGESSTMKLVGNPSGPEFERLIRFWCDERKTIPGMLAALTLELLDKND
On to B3, for which the binding result with Bub1-GFP (fission yeast) [2], with Bub1-GFP (fission yeast) [3] and with Bub1-GFP (fission yeast) [1] was “binds” throughout.

These data come from article PMC5226922.
